# Results: the supplement of paper PMC8728848
# This is one part of the list.
# Columns and labels:
# Assay in all cases: glycan array binding signal (z-score within array); higher = stronger binding
# Settings in all cases: glycan notation: IUPAC condensed, linker removed
# [1] = molecular target: GlcNAc(b1-4)GlcNAc(b1-4)GlcNAc(b1-4)GlcNAc(b1-4)GlcNAc
# How it was run: (§1)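 Glycan array data were curated from 3228 arrays in the Consortium for Functional Glycomics database and kept only where the protein sequence was available. Glycan names were converted to IUPAC-condensed notation, and columns mapping to the same glycan were averaged. The binding signal is a within-array Z-score, averaged across arrays of the same protein sequence at different concentrations or buffers and across linkers. Negative Z-scores can be read as non-binding.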
# [2] = molecular target: GlcNAc(b1-4)GlcNAc(b1-4)GlcNAc(b1-4)GlcNAc(b1-4)GlcNAc(b1-4)GlcNAc
# How it was run: as §1
# [3] = molecular target: GlcNAc(b1-4)[GlcNAc(b1-6)]GalNAc
# How it was run: as §1
# [4] = molecular target: GlcNAc(b1-6)Gal(b1-4)GlcNAc
# How it was run: as §1
# [5] = molecular target: GlcNAc(b1-6)GalNAc
# How it was run: as §1
# [6] = molecular target: GlcNAc6S(b1-3)Gal(b1-4)GlcNAc
# How it was run: as §1
# [7] = molecular target: Kdn(a2-3)Gal(b1-3)GalNAc
# How it was run: as §1
# [8] = molecular target: Kdn(a2-3)Gal(b1-3)GlcNAc
# How it was run: as §1
# [9] = molecular target: Kdn(a2-3)Gal(b1-4)Glc
# How it was run: as §1
# [10] = molecular target: Kdn(a2-3)Gal(b1-4)GlcNAc
# How it was run: as §1
# [11] = molecular target: Kdn(a2-3)Gal(b1-4)[Fuc(a1-3)]GlcNAc
# How it was run: as §1
# [12] = molecular target: Kdn(a2-6)Gal(b1-4)GlcNAc
# How it was run: as §1
# [13] = molecular target: Man(a1-2)Man(a1-2)Man(a1-3)Man
# How it was run: as §1
# [14] = molecular target: Man(a1-2)Man(a1-2)Man(a1-6)[Man(a1-3)]Man
# How it was run: as §1
# [15] = molecular target: Man(a1-2)Man(a1-3)Man
# How it was run: as §1
# [16] = molecular target: Man(a1-2)Man(a1-3)[Man(a1-2)Man(a1-6)]Man
# How it was run: as §1
# [17] = molecular target: Man(a1-2)Man(a1-3)[Man(a1-2)Man(a1-6)]Man(a1-6)[Man(a1-2)Man(a1-2)Man(a1-3)]Man
# How it was run: as §1
# [18] = molecular target: Man(a1-2)Man(a1-3)[Man(a1-2)Man(a1-6)]Man(a1-6)[Man(a1-2)Man(a1-2)Man(a1-3)]Man(b1-4)GlcNAc(b1-4)GlcNAc
# How it was run: as §1
# [19] = molecular target: Man(a1-2)Man(a1-3)[Man(a1-6)]Man(a1-6)[Man(a1-2)Man(a1-3)]Man(b1-4)GlcNAc(b1-4)GlcNAc
# How it was run: as §1
# [20] = molecular target: Man(a1-2)Man(a1-6)[Man(a1-3)]Man(a1-6)[Man(a1-2)Man(a1-2)Man(a1-3)]Man
# How it was run: as §1
# [21] = molecular target: Man(a1-2)Man(a1-6)[Man(a1-3)]Man(a1-6)[Man(a1-2)Man(a1-2)Man(a1-3)]Man(b1-4)GlcNAc(b1-4)GlcNAc
# How it was run: as §1
# [22] = molecular target: Man(a1-3)[Man(a1-6)]Man
# How it was run: as §1
# [23] = molecular target: Man(a1-3)[Man(a1-6)]Man(a1-6)[Man(a1-2)Man(a1-3)]Man(b1-4)GlcNAc(b1-4)GlcNAc
# How it was run: as §1
# [24] = molecular target: Man(a1-3)[Man(a1-6)]Man(a1-6)[Man(a1-3)]Man
# How it was run: as §1
# [25] = molecular target: Man(a1-3)[Man(a1-6)]Man(a1-6)[Man(a1-3)]Man(b1-4)GlcNAc(b1-4)GlcNAc
# How it was run: as §1
# [26] = molecular target: Man(a1-3)[Man(a1-6)]Man(b1-4)GlcNAc(b1-4)GlcNAc
# How it was run: as §1
# [27] = molecular target: Man(a1-3)[Man(a1-6)]Man(b1-4)GlcNAc(b1-4)[Fuc(a1-6)]GlcNAc
# How it was run: as §1
# [28] = molecular target: Man(a1-6)Man
# How it was run: as §1
# [29] = molecular target: Man(b1-4)GlcNAc
# How it was run: as §1
# [30] = molecular target: MurNAc(b1-4)GlcNAc
# How it was run: as §1
# [31] = molecular target: Neu5Ac(a2-3)Gal
# How it was run: as §1
# [32] = molecular target: Neu5Ac(a2-3)Gal(b1-3)GalNAc
# How it was run: as §1
# [33] = molecular target: Neu5Ac(a2-3)Gal(b1-3)GalNAc(b1-3)Gal(a1-4)Gal(b1-4)Glc
# How it was run: as §1
# [34] = molecular target: Neu5Ac(a2-3)Gal(b1-3)GalNAc(b1-4)Gal(b1-4)Glc
# How it was run: as §1
# [35] = molecular target: Neu5Ac(a2-3)Gal(b1-3)GalNAc(b1-4)[Neu5Ac(a2-3)]Gal(b1-4)Glc
# How it was run: as §1
# [36] = molecular target: Neu5Ac(a2-3)Gal(b1-3)GalNAc(b1-4)[Neu5Ac(a2-8)Neu5Ac(a2-3)]Gal(b1-4)Glc
# How it was run: as §1
# [37] = molecular target: Neu5Ac(a2-3)Gal(b1-3)GalNAc6S
# How it was run: as §1
# [38] = molecular target: Neu5Ac(a2-3)Gal(b1-3)GlcNAc
# How it was run: as §1
# [39] = molecular target: Neu5Ac(a2-3)Gal(b1-3)GlcNAc(b1-2)Man
# How it was run: as §1
# [40] = molecular target: Neu5Ac(a2-3)Gal(b1-3)GlcNAc(b1-2)Man(a1-3)[GlcNAc(b1-4)][Neu5Ac(a2-3)Gal(b1-3)GlcNAc(b1-2)Man(a1-6)]Man(b1-4)GlcNAc(b1-4)GlcNAc
# How it was run: as §1
# [41] = molecular target: Neu5Ac(a2-3)Gal(b1-3)GlcNAc(b1-2)Man(a1-3)[Neu5Ac(a2-3)Gal(b1-3)GlcNAc(b1-2)Man(a1-6)]Man(b1-4)GlcNAc(b1-4)GlcNAc
# How it was run: as §1
# [42] = molecular target: Neu5Ac(a2-3)Gal(b1-3)GlcNAc(b1-2)[Neu5Ac(a2-3)Gal(b1-3)GlcNAc(b1-4)]Man(a1-6)[Neu5Ac(a2-3)Gal(b1-3)GlcNAc(b1-2)Man(a1-3)]Man(b1-4)GlcNAc(b1-4)GlcNAc
# How it was run: as §1
# [43] = molecular target: Neu5Ac(a2-3)Gal(b1-3)GlcNAc(b1-3)Gal(b1-3)GlcNAc
# How it was run: as §1
# [44] = molecular target: Neu5Ac(a2-3)Gal(b1-3)GlcNAc(b1-3)Gal(b1-4)GlcNAc
# How it was run: as §1
# [45] = molecular target: Neu5Ac(a2-3)Gal(b1-3)GlcNAc(b1-3)GalNAc
# How it was run: as §1
binder,measurement,setting,value
"pTFF2 (Sus scrofa), P01359 (protein) KPAACRCSRQDPKNRVNCGFPGITSDQCFTSGCCFDSQVPGVPWCFKPLPAQESEECVMEVSARKNCGYPGISPEDCAARNCCFSDTIPEVPWCFFPMSVEACHY",glycan array binding signal (z-score),[1],-0.168
same,glycan array binding signal (z-score),[2],-0.364
same,glycan array binding signal (z-score),[3],-1.57
same,glycan array binding signal (z-score),[4],-0.456
same,glycan array binding signal (z-score),[5],-0.621
same,glycan array binding signal (z-score),[6],0.592
same,glycan array binding signal (z-score),[7],0.467
same,glycan array binding signal (z-score),[8],-0.672
same,glycan array binding signal (z-score),[9],-0.746
same,glycan array binding signal (z-score),[10],0.544
same,glycan array binding signal (z-score),[11],1.11
same,glycan array binding signal (z-score),[12],0.54
same,glycan array binding signal (z-score),[13],1.44
same,glycan array binding signal (z-score),[14],1.33
same,glycan array binding signal (z-score),[15],-0.923
same,glycan array binding signal (z-score),[16],-1.11
same,glycan array binding signal (z-score),[17],-0.502
same,glycan array binding signal (z-score),[18],0.438
same,glycan array binding signal (z-score),[19],-0.442
same,glycan array binding signal (z-score),[20],0.712
same,glycan array binding signal (z-score),[21],-1.11
same,glycan array binding signal (z-score),[22],-1.26
same,glycan array binding signal (z-score),[23],0.578
same,glycan array binding signal (z-score),[24],0.025
same,glycan array binding signal (z-score),[25],-0.224
same,glycan array binding signal (z-score),[26],0.69
same,glycan array binding signal (z-score),[27],-0.079
same,glycan array binding signal (z-score),[28],1
same,glycan array binding signal (z-score),[29],-0.36
same,glycan array binding signal (z-score),[30],-0.243
same,glycan array binding signal (z-score),[31],0.835
same,glycan array binding signal (z-score),[32],-0.363
same,glycan array binding signal (z-score),[33],0.055
same,glycan array binding signal (z-score),[34],0.567
same,glycan array binding signal (z-score),[35],0.668
same,glycan array binding signal (z-score),[36],-0.871
same,glycan array binding signal (z-score),[37],-1.6
same,glycan array binding signal (z-score),[38],-0.426
same,glycan array binding signal (z-score),[39],-1.49
same,glycan array binding signal (z-score),[40],-0.153
same,glycan array binding signal (z-score),[41],-1.01
same,glycan array binding signal (z-score),[42],-0.884
same,glycan array binding signal (z-score),[43],1.93
same,glycan array binding signal (z-score),[44],-0.844
same,glycan array binding signal (z-score),[45],-0.321

# In a second layout: entries from further up.
binder	measurement	setting	value
pTFF2 (Sus scrofa), P01359 (protein) KPAACRCSRQDPKNRVNCGFPGITSDQCFTSGCCFDSQVPGVPWCFKPLPAQESEECVMEVSARKNCGYPGISPEDCAARNCCFSDTIPEVPWCFFPMSVEACHY	glycan array binding signal (z-score)	[7]	0.467
same	glycan array binding signal (z-score)	[18]	0.438
same	glycan array binding signal (z-score)	[44]	-0.844
